{
  "sequences": {"note": "Amino acid sequences for entries named in this document (tags omitted).", "UniProt P10361": "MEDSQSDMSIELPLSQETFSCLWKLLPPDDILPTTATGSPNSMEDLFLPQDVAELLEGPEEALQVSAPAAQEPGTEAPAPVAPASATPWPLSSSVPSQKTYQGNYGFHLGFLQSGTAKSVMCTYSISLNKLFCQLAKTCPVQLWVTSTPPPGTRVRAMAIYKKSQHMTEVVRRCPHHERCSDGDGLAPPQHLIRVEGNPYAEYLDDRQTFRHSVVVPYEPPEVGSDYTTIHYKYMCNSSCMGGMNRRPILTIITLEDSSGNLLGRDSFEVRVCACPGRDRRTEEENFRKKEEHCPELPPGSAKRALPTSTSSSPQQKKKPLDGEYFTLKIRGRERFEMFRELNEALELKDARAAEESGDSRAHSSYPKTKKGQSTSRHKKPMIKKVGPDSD", "UniProt Q3KR59": "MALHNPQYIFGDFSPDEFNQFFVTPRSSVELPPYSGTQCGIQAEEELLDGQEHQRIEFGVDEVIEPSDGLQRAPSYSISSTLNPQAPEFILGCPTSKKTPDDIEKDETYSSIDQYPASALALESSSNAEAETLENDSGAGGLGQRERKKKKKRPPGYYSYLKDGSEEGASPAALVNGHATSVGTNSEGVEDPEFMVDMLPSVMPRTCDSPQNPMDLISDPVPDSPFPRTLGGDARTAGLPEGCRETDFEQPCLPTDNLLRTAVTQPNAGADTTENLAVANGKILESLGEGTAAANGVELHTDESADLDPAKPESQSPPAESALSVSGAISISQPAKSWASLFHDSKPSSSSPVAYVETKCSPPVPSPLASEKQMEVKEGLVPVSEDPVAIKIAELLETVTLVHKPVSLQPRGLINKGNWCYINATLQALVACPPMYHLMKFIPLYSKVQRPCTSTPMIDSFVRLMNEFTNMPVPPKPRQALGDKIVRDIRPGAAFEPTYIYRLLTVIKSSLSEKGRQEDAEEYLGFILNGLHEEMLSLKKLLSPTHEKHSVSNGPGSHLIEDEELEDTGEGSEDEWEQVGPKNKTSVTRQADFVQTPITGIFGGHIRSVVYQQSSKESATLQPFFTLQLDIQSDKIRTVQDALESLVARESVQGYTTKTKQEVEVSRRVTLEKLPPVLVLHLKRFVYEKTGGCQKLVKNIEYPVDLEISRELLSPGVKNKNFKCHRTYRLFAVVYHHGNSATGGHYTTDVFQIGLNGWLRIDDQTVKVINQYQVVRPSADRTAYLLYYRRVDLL"},
  "source": "paper PMC12259547",
  "key": {"[1]": {"biological_target": "T1, Perilipin 5 (PLIN5), FLAG-tagged (UniProt M0R7Z9)", "T1 sequence": "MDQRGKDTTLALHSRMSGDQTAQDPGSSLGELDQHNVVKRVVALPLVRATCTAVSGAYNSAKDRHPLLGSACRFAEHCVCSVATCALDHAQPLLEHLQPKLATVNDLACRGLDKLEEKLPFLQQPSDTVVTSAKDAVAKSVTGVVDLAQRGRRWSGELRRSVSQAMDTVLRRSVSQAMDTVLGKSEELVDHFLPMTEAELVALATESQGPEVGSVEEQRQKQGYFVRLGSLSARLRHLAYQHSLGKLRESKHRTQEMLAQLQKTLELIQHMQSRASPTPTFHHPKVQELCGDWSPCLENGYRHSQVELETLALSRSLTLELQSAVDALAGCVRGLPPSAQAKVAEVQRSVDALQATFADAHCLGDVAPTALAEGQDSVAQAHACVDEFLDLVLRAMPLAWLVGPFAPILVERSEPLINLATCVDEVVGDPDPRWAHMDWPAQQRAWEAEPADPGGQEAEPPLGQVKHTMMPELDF", "assay": "co-IP; H9c2 cells transfected with Flag-PLIN5 for 24 h, then Erastin (10 uM) for 24 h; lysates precipitated with anti-FLAG, anti-USP10 or anti-p53 antibodies and Protein A/G magnetic beads (IP/Co-IP kit, BersinBio), 4 C overnight; immunoblot for USP10"}, "[2]": {"biological_target": "p53 (rat (endogenous in H9c2)) (UniProt P10361)", "assay": "co-IP; H9c2 cells transfected with Flag-PLIN5 for 24 h, then Erastin (10 uM) for 24 h; lysates precipitated with anti-FLAG, anti-USP10 or anti-p53 antibodies and Protein A/G magnetic beads (IP/Co-IP kit, BersinBio), 4 C overnight; immunoblot for USP10"}},
  "note": "These are yes or no findings as the source states them, for the method shown. Binding seen in cells or lysates may run through a third protein. Some results given as binding are weak or reduced against the parent protein; the word gives no strength. For some assays here: Sequences can lack the tags named with a protein.",
  "data": [
    {"substance": "ubiquitin-specific peptidase 10 (USP10) (from UniProt Q3KR59 1-794) (enzyme)", "values": [
      {"measurement": "binding", "setting": "[1]", "result": "binds"},
      {"measurement": "binding", "setting": "[2]", "result": "binds"}
    ]}
  ]
}
